# These are yes or no findings as the source states them, for the method shown. Binding seen in cells or lysates may run through a third protein. Some binding calls cover weakened binding; strength is not graded here. For some of these results: Where a sequence is shown, tags or fusion partners need not be part of it.
# Protein sequences, listed by entry. Tags and fused reporters are not part of them.
# UniProt Q13616: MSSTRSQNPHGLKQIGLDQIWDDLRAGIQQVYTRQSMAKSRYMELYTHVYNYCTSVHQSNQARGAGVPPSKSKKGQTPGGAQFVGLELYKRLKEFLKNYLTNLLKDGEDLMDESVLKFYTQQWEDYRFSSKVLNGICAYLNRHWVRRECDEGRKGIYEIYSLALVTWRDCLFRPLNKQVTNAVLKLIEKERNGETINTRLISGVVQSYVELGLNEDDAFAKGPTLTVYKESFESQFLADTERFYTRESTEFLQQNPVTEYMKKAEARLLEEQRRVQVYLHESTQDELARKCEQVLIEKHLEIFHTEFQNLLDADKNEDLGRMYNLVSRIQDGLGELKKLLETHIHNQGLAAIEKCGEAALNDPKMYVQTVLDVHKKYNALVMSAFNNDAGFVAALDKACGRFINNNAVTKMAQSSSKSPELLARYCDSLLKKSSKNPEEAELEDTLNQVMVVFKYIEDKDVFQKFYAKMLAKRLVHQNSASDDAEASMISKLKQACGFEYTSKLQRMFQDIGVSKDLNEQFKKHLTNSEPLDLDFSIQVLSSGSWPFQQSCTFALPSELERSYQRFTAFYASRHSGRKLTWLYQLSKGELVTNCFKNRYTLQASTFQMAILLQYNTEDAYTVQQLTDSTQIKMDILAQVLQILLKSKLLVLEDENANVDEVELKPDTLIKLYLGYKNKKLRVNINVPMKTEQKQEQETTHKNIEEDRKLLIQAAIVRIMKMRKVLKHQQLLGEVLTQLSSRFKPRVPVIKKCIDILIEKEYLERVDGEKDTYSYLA
# UniProt Q01959: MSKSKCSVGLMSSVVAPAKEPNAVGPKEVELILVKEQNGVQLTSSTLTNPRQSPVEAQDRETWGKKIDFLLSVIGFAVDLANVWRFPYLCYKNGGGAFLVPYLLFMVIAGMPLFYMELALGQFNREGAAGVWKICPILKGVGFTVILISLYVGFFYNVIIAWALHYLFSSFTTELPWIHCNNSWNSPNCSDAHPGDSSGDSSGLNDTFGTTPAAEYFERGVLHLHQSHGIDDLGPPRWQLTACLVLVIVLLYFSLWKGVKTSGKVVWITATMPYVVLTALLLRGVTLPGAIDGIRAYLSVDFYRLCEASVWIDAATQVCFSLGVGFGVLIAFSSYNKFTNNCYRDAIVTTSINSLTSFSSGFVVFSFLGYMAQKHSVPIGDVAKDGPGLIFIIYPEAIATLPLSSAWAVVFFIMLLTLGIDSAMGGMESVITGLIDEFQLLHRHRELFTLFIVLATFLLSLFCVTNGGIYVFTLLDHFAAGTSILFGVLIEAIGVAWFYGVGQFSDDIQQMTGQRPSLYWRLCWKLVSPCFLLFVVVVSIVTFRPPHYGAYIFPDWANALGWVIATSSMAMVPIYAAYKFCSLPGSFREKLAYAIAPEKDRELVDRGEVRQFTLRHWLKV
# T1: myc-FBXL2 (UniProt Q9UKC9)
# T1 sequence: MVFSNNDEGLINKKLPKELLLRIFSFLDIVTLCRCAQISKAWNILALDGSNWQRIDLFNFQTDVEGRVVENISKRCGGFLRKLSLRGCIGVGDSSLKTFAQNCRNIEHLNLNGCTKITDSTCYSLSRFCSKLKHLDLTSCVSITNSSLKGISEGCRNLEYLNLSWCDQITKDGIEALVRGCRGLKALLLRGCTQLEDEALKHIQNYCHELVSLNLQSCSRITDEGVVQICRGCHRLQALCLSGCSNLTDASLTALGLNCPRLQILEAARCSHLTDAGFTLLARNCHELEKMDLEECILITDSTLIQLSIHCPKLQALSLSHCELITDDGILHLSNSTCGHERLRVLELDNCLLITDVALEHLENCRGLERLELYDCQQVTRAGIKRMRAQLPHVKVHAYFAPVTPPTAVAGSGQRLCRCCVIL
# How the values were obtained:
# Assay in all cases: co-IP; HEK293 cells transiently co-transfected with tagged proteins, 48 h; solubilised in RIPA buffer (0.1% SDS, 1% Triton X100, 0.5% sodium deoxycholate, 150 mM NaCl), in some panels a modified RIPA without SDS or with rising SDS (diluted to 0.1% before IP); antibody to the tag overnight at 4 °C, protein A or G agarose, western blot
# flag-Cullin1 = flag-Cullin1 (UniProt Q13616)
# myc-FBXL2 = target: T1, myc-FBXL2
# HA-DAT = HA-DAT (UniProt Q01959)
Molecule,binding (flag-Cullin1),binding (myc-FBXL2),binding (HA-DAT)
"myc-FBXL2 (protein, UniProt Q9UKC9 1-423) MVFSNNDEGLINKKLPKELLLRIFSFLDIVTLCRCAQISKAWNILALDGSNWQRIDLFNFQTDVEGRVVENISKRCGGFLRKLSLRGCIGVGDSSLKTFAQNCRNIEHLNLNGCTKITDSTCYSLSRFCSKLKHLDLTSCVSITNSSLKGISEGCRNLEYLNLSWCDQITKDGIEALVRGCRGLKALLLRGCTQLEDEALKHIQNYCHELVSLNLQSCSRITDEGVVQICRGCHRLQALCLSGCSNLTDASLTALGLNCPRLQILEAARCSHLTDAGFTLLARNCHELEKMDLEECILITDSTLIQLSIHCPKLQALSLSHCELITDDGILHLSNSTCGHERLRVLELDNCLLITDVALEHLENCRGLERLELYDCQQVTRAGIKRMRAQLPHVKVHAYFAPVTPPTAVAGSGQRLCRCCVIL",,,binds
"myc-FBXO3 (protein, UniProt Q9UK99 1-471) MAAMETETAPLTLESLPTDPLLLILSFLDYRDLINCCYVSRRLSQLSSHDPLWRRHCKKYWLISEEEKTQKNQCWKSLFIDTYSDVGRYIDHYAAIKKAWDDLKKYLEPRCPRMVLSLKEGAREEDLDAVEAQIGCKLPDDYRCSYRIHNGQKLVVPGLLGSMALSNHYRSEDLLDVDTAAGGFQQRQGLKYCLPLTFCIHTGLSQYIAVEAAEGRNKNEVFYQCPDQMARNPAAIDMFIIGATFTDWFTSYVKNVVSGGFPIIRDQIFRYVHDPECVATTGDITVSVSTSFLPELSSVHPPHYFFTYRIRIEMSKDALPEKACQLDSRYWRITNAKGDVEEVQGPGVVGEFPIISPGRVYEYTSCTTFSTTSGYMEGYYTFHFLYFKDKIFNVAIPRFHMACPTFRVSIARLEMGPDEYEEMEEEEEEEEEEDEDDDSADMDESDEDDEEERRRRVFDVPIRRRRCSRLF",,,binds

# Other lines, results leading:
binding (flag-Cullin1),binding (myc-FBXL2),binding (HA-DAT),Molecule
binds,binds,,HA-DAT (from UniProt Q01959 1-620)
,,binds,"GFP-M6b (protein, UniProt P35803 1-328) MKPAMETAAEENTEQSQERKVNSRAEMEIGRYHWMYPGSKNHQYRPVPNLGDRAGPLSSPGCFECCIKCLGGVPYASLVATILCFSGVALFCGCGHVALAGTVAILEQHFSTNTSDHALLSEVIQLMQYVIYGIASFFFLYGIILLAEGFYTTSAVKELHGEFKTTACGRCISGMFVFLTYVLGVAWLGVFGFSAVPVFMFYNIWSTCEVIKSPQSNGTSGVEQICVDVRQYGIIPWNAFPGKICGSALENICNTNEFYMSYHLFIVACAGAGATVIALIHFLMILSSNWAYLKDASKMQAYQDIKAKEEQELQDIQSRSKEQLNSYT"
,,binds,"myc-PGRMC2 (protein, UniProt O15173 1-223) MAAGDGDVKLGTLGSGSESSNDGGSESPGDAGAAAEGGGWAAAALALLTGGGEMLLNVALVALVLLGAYRLWVRWGRRGLGAGAGAGEESPATSLPRMKKRDFSLEQLRQYDGSRNPRILLAVNGKVFDVTKGSKFYGPAGPYGIFAGRDASRGLATFCLDKDALRDEYDDLSDLNAVQMESVREWEMQFKEKYDYVGRLLKPGEEPSEYTDEEDTKDHNKQD"
,,binds,"myc-FBX18 (protein, UniProt Q96ME1 1-718) MASSGEDISNDDDDMHPAAAGMADGVHLLGFSDEILLHILSHVPSTDLILNVRRTCRKLAALCLDKSLIHTVLLQKDYQASEDKVRQLVKEIGREIQQLSMAGCYWLPGSTVEHVARCRSLVKVNLSGCHLTSLRLSKMLSALQHLRSLAIDVSPGFDASQLSSECKATLSRVRELKQTLFTPSYGVVPCCTSLEKLLLYFEILDRTREGAILSGQLMVGQSNVPHYQNLRVFYARLAPGYINQEVVRLYLAVLSDRTPQNLHAFLISVPGSFAESGATKNLLDSMARNVVLDALQLPKSWLNGSSLLQHMKFNNPFYFSFSRCTLSGGHLIQQVINGGKDLRSLASLNLSGCVHCLSPDSLLRKAEDDIDSSILETLVASCCNLRHLNLSAAHHHSSEGLGRHLCQLLARLRHLRSLSLPVCSVADSAPRADRAPAQPAMHAVPRGFGKKVRVGVQSCPSPFSGQACPQPSSVFWSLLKNLPFLEHLELIGSNFSSAMPRNEPAIRNSLPPCSRAQSVGDSEVAAIGQLAFLRHLTLAQLPSVLTGSGLVNIGLQCQQLRSLSLANLGMMGKVVYMPALSDMLKHCKRLRDLRLEQPYFSANAQFFQALSQCPSLQRLCLVSRSGTLQPDAVLAFMARCLQVVMCHLFTGESLATCKSLQQSLLRSFQAERPALNVVIFPLLHEGLTDVIRDVPLVHLDEITLFKSRVAEEPPNLWW"
